Results are given in words; binding and its absence hold for the method and conditions named. In cells and extracts the contact can be indirect. Some results given as binding are weak or reduced against the parent protein; the word gives no strength. Where a sequence is shown, tags or fusion partners need not be part of it.

The chains behind the UniProt entries cited, without tags or fusion partners.
UniProt Q9VHP0: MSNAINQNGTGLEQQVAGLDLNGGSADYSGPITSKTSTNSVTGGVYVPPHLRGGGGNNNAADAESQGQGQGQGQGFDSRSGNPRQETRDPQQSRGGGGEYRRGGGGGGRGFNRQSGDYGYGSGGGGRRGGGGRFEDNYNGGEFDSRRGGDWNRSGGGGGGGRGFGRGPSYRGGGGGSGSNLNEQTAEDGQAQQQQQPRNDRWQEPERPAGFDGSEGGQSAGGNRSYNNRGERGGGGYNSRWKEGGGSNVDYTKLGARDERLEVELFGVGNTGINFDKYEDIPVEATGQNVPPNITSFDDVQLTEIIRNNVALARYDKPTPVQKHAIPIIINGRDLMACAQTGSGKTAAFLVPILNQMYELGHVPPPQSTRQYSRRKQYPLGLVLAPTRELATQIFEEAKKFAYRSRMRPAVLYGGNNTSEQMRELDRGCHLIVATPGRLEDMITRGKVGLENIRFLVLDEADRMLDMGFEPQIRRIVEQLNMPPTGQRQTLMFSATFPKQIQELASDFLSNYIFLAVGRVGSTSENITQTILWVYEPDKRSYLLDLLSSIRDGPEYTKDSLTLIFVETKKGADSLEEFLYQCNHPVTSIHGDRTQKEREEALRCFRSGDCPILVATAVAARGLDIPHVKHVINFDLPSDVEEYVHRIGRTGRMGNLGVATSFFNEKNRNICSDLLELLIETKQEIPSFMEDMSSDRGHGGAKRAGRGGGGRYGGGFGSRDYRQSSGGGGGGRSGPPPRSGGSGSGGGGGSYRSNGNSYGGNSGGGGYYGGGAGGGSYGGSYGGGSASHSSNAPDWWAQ

The values that follow come from publication PMC8143644.

The target of this assay is T1, Hrp48 (tagged, expressed in HEK293 cells) (Drosophila melanogaster) (UniProt P48809).
T1 sequence: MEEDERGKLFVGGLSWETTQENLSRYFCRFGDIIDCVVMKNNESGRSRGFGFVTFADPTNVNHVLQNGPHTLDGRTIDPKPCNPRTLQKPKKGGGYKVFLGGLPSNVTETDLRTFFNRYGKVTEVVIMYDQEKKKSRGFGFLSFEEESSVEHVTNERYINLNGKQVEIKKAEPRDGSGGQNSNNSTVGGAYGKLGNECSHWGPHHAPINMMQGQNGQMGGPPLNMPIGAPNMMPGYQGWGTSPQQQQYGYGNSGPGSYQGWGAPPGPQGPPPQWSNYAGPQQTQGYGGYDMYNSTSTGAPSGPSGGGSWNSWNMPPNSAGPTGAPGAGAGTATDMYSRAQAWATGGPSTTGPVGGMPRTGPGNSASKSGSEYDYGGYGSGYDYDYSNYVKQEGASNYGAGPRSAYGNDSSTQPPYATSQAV
Nature of the assay: co-IP; HEK293 cells co-transfected with bait and candidate (GFP-tagged bait with HA- or HA-Flag-tagged candidate, GFP-TRAP beads; or HA-Flag-tagged bait with GFP-tagged candidate, anti-Flag antibody); lysates treated with RNase A/T1; Western blot with anti-HA and anti-GFP. A general note: Immunoblotting shows a protein as a band on a membrane.

Take “Belle (tagged, expressed in HEK293 cells) (from UniProt Q9VHP0 1-798)”: the binding entry is on record as “binds”.
